This assay deals with T1, OTUD1 (overexpressed, untagged plasmid pCMV3-OTUD1) (human) (UniProt Q5VV17).
T1 sequence: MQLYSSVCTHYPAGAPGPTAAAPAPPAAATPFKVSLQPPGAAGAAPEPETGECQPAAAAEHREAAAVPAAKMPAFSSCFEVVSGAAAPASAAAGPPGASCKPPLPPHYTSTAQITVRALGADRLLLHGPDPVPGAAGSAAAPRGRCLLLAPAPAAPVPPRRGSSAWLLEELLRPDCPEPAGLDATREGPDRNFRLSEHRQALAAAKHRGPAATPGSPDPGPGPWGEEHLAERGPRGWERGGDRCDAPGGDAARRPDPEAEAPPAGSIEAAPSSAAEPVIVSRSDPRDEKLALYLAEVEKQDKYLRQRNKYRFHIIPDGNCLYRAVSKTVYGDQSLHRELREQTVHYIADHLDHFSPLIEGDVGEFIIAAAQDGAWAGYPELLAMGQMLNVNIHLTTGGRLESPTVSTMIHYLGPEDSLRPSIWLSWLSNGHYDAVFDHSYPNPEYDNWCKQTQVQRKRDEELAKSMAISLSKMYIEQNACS
Briefly: co-IP; HEK293T co-transfected with OTUD1 and HA-BST-2; OTUD1 immunoprecipitated with OTUD1 antibody for 6 h, protein A/G beads overnight; Western blot for HA-BST-2. For orientation: A western blot detects proteins with antibodies after separation by electrophoresis.

The chains behind the UniProt entries cited, without tags or fusion partners. Residues count along the entry.
UniProt Q10589, residues 1-161: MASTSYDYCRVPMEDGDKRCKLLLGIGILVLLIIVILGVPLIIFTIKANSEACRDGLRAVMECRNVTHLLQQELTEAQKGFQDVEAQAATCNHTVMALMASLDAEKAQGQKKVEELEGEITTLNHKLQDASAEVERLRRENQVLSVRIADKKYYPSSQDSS

Results are given in words; binding and its absence hold for the method and conditions named. Binding seen in cells or lysates may run through a third protein. Some results given as binding are weak or reduced against the parent protein; the word gives no strength. Tags and fused reporters may be left off the sequences shown.

“HA-BST-2 (bone marrow stromal cell antigen 2) (from UniProt Q10589 1-161)”: the binding result was “binds”.
